For 23 sequences, binding signal results are on record in article PMC7819943, “Rice protein-binding microarrays: a tool to detect cis-acting elements near promoter regions in rice”.

Sequences of proteins named here, by UniProt entry; tags and fusion partners are left off.
UniProt Q0JBA9, entry or part of it: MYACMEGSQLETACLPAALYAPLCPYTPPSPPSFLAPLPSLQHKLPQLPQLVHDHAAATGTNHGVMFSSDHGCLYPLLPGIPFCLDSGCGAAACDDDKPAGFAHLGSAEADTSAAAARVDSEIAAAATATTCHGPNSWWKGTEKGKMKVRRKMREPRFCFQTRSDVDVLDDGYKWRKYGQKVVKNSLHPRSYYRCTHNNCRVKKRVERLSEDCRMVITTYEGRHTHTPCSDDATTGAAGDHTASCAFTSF

This is one part of the list.

This assay addresses OsWRKY34 (Oryza sativa, UniProt Q0JBA9 1-250). Put plainly: protein-binding microarray (RPBM); PBS, 2% BSA, 51.3 ng/ul salmon testes DNA, 50 uM zinc acetate, 200 nM TF, 25 C, 1 h; high values mean tight binding. As to conditions: protein: recombinant; tags: N-terminal polyhistidine and DsRed monomer fusion (pET32a); label: CyDye5-dUTP incorporated in the synthesized complementary strand; 3' TTTTT single-stranded linker to array surface; dsDNA, one strand shown. The method in brief: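 A custom Agilent array was converted to double-stranded form by primer extension with Cy5-dUTP and blocked with 2% BSA. Protein at 200 nM in PBS with 2% BSA, salmon testes DNA and 50 µM zinc acetate was applied for 1 h at 25 °C, followed by washing. The proteins were polyhistidine–DsRed N-terminal fusions of transcription factors, expressed in E. coli BL21-CodonPlus and Ni–NTA-purified. The binding signal is per-feature fluorescence intensity (arbitrary units) from an Axon 4000B scanner.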
As to “CGATCGCATCGCTCGCATCAGCTGCCGCTAGCTGTCCATTCGGAGTCACCTAGTGCAG”, the binding signal was 8670 fluorescence intensity (a.u.). Consider “TCGACTATTTAGGGTTTGTTGTTGGGTTGAACTTTATGGGCGGAGTCACCTAGTGCAG”, for which the binding signal was 9290 fluorescence intensity (a.u.). For “CGCGCCACATACTGCTACTAGCAACGCTCCACTTGCTTGACGGAGTCACCTAGTGCAG”, the binding signal is 8140 fluorescence intensity (a.u.). The value for “TCCCTCATTTCTCCTTTTTTTTTTAATCTATTTTTTTTGACGGAGTCACCTAGTGCAG” was 9140 fluorescence intensity (a.u.); that for “TGTTTTCTTCCATGTGTACTACAAGGGGTCGGTCTATCATCGGAGTCACCTAGTGCAG” was 9640 fluorescence intensity (a.u.). With “TCTACTATTTTTCTTGTTATTTGTAATTACATAAATTATACGGAGTCACCTAGTGCAG”, the binding signal is 8360 fluorescence intensity (a.u.). On to “CTCTGTTTCTTCCTTTTTGTTTTTCTTTCGAGAGAGAAAACGGAGTCACCTAGTGCAG”, for which the binding signal was 9790 fluorescence intensity (a.u.). As for “CATCCTCAAGTCGCTGTGACCGCACCATGCATATTCACATCGGAGTCACCTAGTGCAG”, the binding signal is 8700 fluorescence intensity (a.u.). Take “GAGGTCCTCCCTTCTTCGCTTCTTCCAATCCATGGGCCGCCGGAGTCACCTAGTGCAG”: the binding signal is 8340 fluorescence intensity (a.u.). The value for “TAGTCACACATTTGATCATTCGTCTTATTCAAAAAATTTACGGAGTCACCTAGTGCAG” was 8620 fluorescence intensity (a.u.). The value for “TTGGGATGTTTCATATTCAATTTTACGGTTAAGGGACGTACGGAGTCACCTAGTGCAG” was 9350 fluorescence intensity (a.u.); that for “GGAGTCTTTGCTTGCTCGAGTAATATAATGCTGTTAACCCCGGAGTCACCTAGTGCAG” was 8550 fluorescence intensity (a.u.). Then “CTCCCTCGTCTTTCTGCTGGCCACCACCCTCCCCGTCTTCCGGAGTCACCTAGTGCAG”, with 12300 fluorescence intensity (a.u.); and “TACCATGAGCTAGTTTTTGTTCTTGTGCCTTTTGTTCTTACGGAGTCACCTAGTGCAG”, with 13600 fluorescence intensity (a.u.). With “TCTTCGATTTCTTGCTTCTTGATTCGTCGCCGCTGCTGCTCGGAGTCACCTAGTGCAG”, the binding signal was 10200 fluorescence intensity (a.u.). As for “TCCTATGGAGTAATTATATTTTGCAGTTGCAGCCATCAGTCGGAGTCACCTAGTGCAG”, the binding signal is 8880 fluorescence intensity (a.u.). For “GAATGCACTTGGTCAAACTGATTCCACTCGGTCCCTACATCGGAGTCACCTAGTGCAG”, the binding signal is 9600 fluorescence intensity (a.u.). “CTAATGCCTAATATATGTGGGTCCACCGTTTTAAATGAAACGGAGTCACCTAGTGCAG”: the binding signal is 15500 fluorescence intensity (a.u.).

Regarding “AGCGCCTTTAATACCGTCGTCACCGATCGGCTTCCGTTTTCGGAGTCACCTAGTGCAG”, the binding signal was 10200 fluorescence intensity (a.u.). Regarding “TTCGCGCCGCCGCCCTCGCCTCTCTTGCGCCTCCACCGGCCGGAGTCACCTAGTGCAG”, the binding signal was 9190 fluorescence intensity (a.u.).

Consider “GCCCAGACACCAAGAACCATCTCGTCCCACGCGGCGACCACGGAGTCACCTAGTGCAG”, for which the binding signal was 8500 fluorescence intensity (a.u.). Turning to “TCTTCTTGAATTTTGCGGTGACATATTAATGCAGGACTAACGGAGTCACCTAGTGCAG”, the binding signal was 8340 fluorescence intensity (a.u.). Turning to “CGCCGCCACAGTCGCCGGACTCACTCAAGAAGGTGACTCACGGAGTCACCTAGTGCAG”, the binding signal was 8680 fluorescence intensity (a.u.).
